PubChem BioAssay AID1259254 | NCATS – 2017
Assay: 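Gene knock-downs that lead to re-replication, shown by excess G2 DNA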 (primary screen). System: human HCT116 colorectal cancer cells. Knock-down reagent: single siRNA against human genes. Timing: 3 days. Read-out: 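Imaged Hoechst DNA stain sorts each cell into a cycle phase by DNA amount; per plate, G2 fraction set to 0% for non-targeting and 100% for GMNN siRNA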. Reading the numbers: G2 robust z-score and G2 cells, % of GMNN control: higher = more G2 cells, more excess DNA replication. Rule for the call: 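Active siRNAs have a G2 robust z of 5 or more median absolute deviations over the median, which in these data means about 38% or higher of GMNN control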.
Shown is an unselected part of about 59,000 deposited reagents. Of all reagents, about 1,550 (2.6%) were called active. 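G2 share is only a proxy for re-replication; each gene was hit by three separate siRNAs, and active genes were retested.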 Reagents against one gene are numbered here. Further read-outs or replicates are left out here. Not given: the amount of reagent.

G2 robust z-score | G2 cells, % of GMNN control | outcome | target gene | reagent no.
0.272 | 4.88 | inactive | AGPAT3 (1-acylglycerol-3-phosphate O-acyltransferase 3) | 1
-0.239 | 1.29 | inactive | AGPAT3 (1-acylglycerol-3-phosphate O-acyltransferase 3) | 2
4.67 | 35.8 | inactive | AGPAT3 (1-acylglycerol-3-phosphate O-acyltransferase 3) | 3
-0.663 | -1.7 | inactive | CFDP1 (chromatin remodeling protein CFDP1) | 1
-0.583 | -1.13 | inactive | CFDP1 (chromatin remodeling protein CFDP1) | 2
1.78 | 15.5 | inactive | CFDP1 (chromatin remodeling protein CFDP1) | 3
2.85 | 23 | inactive | PCDH11X (protocadherin 11 X-linked) | 1
2.24 | 18.7 | inactive | PCDH11X (protocadherin 11 X-linked) | 2
-0.179 | 1.71 | inactive | PCDH11X (protocadherin 11 X-linked) | 3
-0.249 | 1.22 | inactive | ARPC1A (actin related protein 2/3 complex subunit 1A) | 1
0.384 | 5.67 | inactive | ARPC1A (actin related protein 2/3 complex subunit 1A) | 2
0.616 | 7.3 | inactive | ARPC1A (actin related protein 2/3 complex subunit 1A) | 3
0.166 | 4.14 | inactive | GBA3 (glucosylceramidase beta 3 (gene/pseudogene)) | 1
0.0101 | 3.04 | inactive | GBA3 (glucosylceramidase beta 3 (gene/pseudogene)) | 2
-0.311 | 0.78 | inactive | GBA3 (glucosylceramidase beta 3 (gene/pseudogene)) | 3

Reformatted: entries from further up
CFDP1 (chromatin remodeling protein CFDP1) #2 | G2 robust z-score = -0.583; G2 cells, % of GMNN control = -1.13; outcome = inactive
CFDP1 (chromatin remodeling protein CFDP1) #3 | G2 robust z-score = 1.78; G2 cells, % of GMNN control = 15.5; outcome = inactive
PCDH11X (protocadherin 11 X-linked) #1 | G2 robust z-score = 2.85; G2 cells, % of GMNN control = 23; outcome = inactive
PCDH11X (protocadherin 11 X-linked) #2 | G2 robust z-score = 2.24; G2 cells, % of GMNN control = 18.7; outcome = inactive

The list goes on.
G2 robust z-score | G2 cells, % of GMNN control | outcome | target gene | reagent no.
0.698 | 7.88 | inactive | SLC6A1 | 1
2.79 | 22.6 | inactive | SLC6A1 | 2
0.605 | 7.22 | inactive | SLC6A1 | 3
-0.0847 | 2.37 | inactive | DNAJB11 (DnaJ heat shock protein family (Hsp40) member B11) | 1
5.74 | 43.3 | active | DNAJB11 (DnaJ heat shock protein family (Hsp40) member B11) | 2
-0.396 | 0.184 | inactive | DNAJB11 (DnaJ heat shock protein family (Hsp40) member B11) | 3
-0.632 | -1.48 | inactive | DUSP19 (dual specificity phosphatase 19) | 1
-0.055 | 2.58 | inactive | DUSP19 (dual specificity phosphatase 19) | 2
0.418 | 5.91 | inactive | DUSP19 (dual specificity phosphatase 19) | 3
0.375 | 5.61 | inactive | HSD17B1 (hydroxysteroid 17-beta dehydrogenase 1) | 1
-1.51 | -7.67 | inactive | HSD17B1 (hydroxysteroid 17-beta dehydrogenase 1) | 2
3.59 | 28.3 | inactive | HSD17B1 (hydroxysteroid 17-beta dehydrogenase 1) | 3
8.13 | 60.2 | active | IL27RA (interleukin 27 receptor subunit alpha) | 1
3.76 | 29.5 | inactive | IL27RA (interleukin 27 receptor subunit alpha) | 2
-0.407 | 0.105 | inactive | IL27RA (interleukin 27 receptor subunit alpha) | 3
